The test has as its target FLAG-tagged SF3B1 K700E (UniProt O75533). In words: co-IP.

Amino acid sequences for entries named in this document (tags omitted). A change or cut given only in a name is not applied to a line headed by its entry.
UniProt O75533, whole entry, looked up, stated change not applied: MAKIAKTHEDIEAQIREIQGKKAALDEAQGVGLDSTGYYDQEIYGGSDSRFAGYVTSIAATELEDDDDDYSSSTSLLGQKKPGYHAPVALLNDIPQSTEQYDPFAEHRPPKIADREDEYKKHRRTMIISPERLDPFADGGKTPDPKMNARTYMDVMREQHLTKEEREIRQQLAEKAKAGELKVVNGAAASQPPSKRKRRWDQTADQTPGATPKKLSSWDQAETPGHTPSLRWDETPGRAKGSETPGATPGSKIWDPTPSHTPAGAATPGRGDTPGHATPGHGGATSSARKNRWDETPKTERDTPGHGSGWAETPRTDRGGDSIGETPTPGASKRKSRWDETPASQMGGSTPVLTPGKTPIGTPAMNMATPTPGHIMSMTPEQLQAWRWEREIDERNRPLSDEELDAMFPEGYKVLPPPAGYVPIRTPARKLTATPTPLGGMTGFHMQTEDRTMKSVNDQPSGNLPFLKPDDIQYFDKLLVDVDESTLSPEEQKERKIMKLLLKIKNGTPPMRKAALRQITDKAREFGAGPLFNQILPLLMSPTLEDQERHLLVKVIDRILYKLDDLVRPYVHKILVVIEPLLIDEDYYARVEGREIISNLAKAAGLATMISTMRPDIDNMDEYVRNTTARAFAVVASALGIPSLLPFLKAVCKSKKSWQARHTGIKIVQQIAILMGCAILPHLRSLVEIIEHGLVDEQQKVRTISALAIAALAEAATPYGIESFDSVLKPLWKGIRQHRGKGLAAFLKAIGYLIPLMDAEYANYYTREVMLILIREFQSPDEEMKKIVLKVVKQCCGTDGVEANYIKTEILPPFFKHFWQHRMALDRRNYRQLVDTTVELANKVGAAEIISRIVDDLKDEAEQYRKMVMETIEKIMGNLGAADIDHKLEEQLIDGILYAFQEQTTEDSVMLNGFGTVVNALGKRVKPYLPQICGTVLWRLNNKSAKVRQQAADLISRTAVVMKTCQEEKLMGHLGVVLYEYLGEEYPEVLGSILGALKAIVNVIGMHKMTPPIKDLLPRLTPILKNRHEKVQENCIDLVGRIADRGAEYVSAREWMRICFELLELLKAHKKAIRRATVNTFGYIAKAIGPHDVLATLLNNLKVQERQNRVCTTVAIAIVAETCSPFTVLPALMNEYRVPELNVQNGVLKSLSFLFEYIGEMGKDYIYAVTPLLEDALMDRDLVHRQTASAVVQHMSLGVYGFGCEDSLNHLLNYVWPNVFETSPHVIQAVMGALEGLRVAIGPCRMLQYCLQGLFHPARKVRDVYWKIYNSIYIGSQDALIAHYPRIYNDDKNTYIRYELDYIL
UniProt Q16665, whole entry: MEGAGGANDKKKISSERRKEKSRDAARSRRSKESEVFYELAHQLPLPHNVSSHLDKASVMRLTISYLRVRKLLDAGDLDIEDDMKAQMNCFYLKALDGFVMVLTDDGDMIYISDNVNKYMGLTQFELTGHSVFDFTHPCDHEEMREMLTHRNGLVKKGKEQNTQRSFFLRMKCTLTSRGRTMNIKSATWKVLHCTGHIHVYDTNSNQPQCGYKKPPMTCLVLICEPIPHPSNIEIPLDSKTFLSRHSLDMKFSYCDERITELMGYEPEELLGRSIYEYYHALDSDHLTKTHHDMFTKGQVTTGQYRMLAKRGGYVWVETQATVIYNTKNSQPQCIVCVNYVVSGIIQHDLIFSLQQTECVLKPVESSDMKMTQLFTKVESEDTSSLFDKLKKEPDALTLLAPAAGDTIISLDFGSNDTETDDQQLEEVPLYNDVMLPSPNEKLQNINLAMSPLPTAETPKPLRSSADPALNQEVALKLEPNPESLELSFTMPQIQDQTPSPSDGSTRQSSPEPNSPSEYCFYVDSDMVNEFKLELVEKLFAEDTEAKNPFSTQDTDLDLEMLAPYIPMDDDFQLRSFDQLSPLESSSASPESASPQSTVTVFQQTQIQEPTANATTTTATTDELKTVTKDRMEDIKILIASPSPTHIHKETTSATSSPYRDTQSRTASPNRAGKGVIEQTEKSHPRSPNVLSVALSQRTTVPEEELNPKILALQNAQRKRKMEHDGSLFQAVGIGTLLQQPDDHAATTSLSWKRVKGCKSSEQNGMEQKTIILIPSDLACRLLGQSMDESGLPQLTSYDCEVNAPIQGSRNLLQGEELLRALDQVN

Results are given in words; binding and its absence hold for the method and conditions named. In cells and extracts the contact can be indirect. Some binding calls cover weakened binding; strength is not graded here.

Regarding “HA-tagged WT full length (FL) HIF1α (from UniProt Q16665 1-826)”, the binding entry was “binds”.
